Results deposited as PubChem BioAssay AID504804 (Drosophila RNAi Screening Center, 2011)
The screen tested about 19,000 reagents; shown is an unselected part of those with a known target gene and a result. Over the whole deposit, 47 (0.25%) were called active. 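Signals are raw, not normalised; exact z-scores behind calls not deposited; actives needed confirmation, so some wells reaching 2 SD are inactive.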 Unmarked entries are inactive.

Aim: 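Fly genes whose loss lessens doxorubicin-driven cell death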 (primary screen)
Cell system: Drosophila Kc cells
Knock-down reagent: long dsRNA against Drosophila genes, 0.5 µg dsRNA per well
Duration: 96 h (48 h knock-down, then 48 h drug)
Treatment: doxorubicin 5 µg/ml for 48 h, added 48 h after dsRNA
Read-out: 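Viability measured as cellular ATP by luminescence after 48 h knock-down then 48 h doxorubicin at 5 µg/ml; unnormalised plate counts for each replicate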
Direction: raw ATP luminescence: higher = more viable cells, protection from doxorubicin
Call rule: 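z-score of 2 or more over plate mean in both duplicates, retained only when retests and separate dsRNAs confirm the protection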

{"gene": "verm (vermiform)", "raw ATP luminescence, replicate 1": 20813, "raw ATP luminescence, replicate 2": 25963}
{"gene": "cass (cassowary)", "raw ATP luminescence, replicate 1": 71203, "raw ATP luminescence, replicate 2": 55630}
{"gene": "MFS1 (Major Facilitator Superfamily Transporter 1)", "SD above plate mean": "2 to 3 SD above plate mean", "raw ATP luminescence, replicate 1": 50040, "raw ATP luminescence, replicate 2": 47340}
{"gene": "Alp12 (Alkaline phosphatase 12)", "raw ATP luminescence, replicate 1": 58380, "raw ATP luminescence, replicate 2": 60737}
{"gene": "CG12826", "raw ATP luminescence, replicate 1": 49053, "raw ATP luminescence, replicate 2": 78267}
{"gene": "Galphao (G protein alpha subunit o)", "raw ATP luminescence, replicate 1": 47987, "raw ATP luminescence, replicate 2": 45943}
{"gene": "Cdc42 (Cell division cycle 42)", "raw ATP luminescence, replicate 1": 2.22e5, "raw ATP luminescence, replicate 2": 2.18e5}
{"gene": "Elal (Elastin-like)", "raw ATP luminescence, replicate 1": 30787, "raw ATP luminescence, replicate 2": 47653}
{"gene": "CG13250", "raw ATP luminescence, replicate 1": 72677, "raw ATP luminescence, replicate 2": 62653}
{"gene": "Cyp6u1 (Cytochrome P450 6u1)", "raw ATP luminescence, replicate 1": 70750, "raw ATP luminescence, replicate 2": 54013}
{"gene": "CG4520", "raw ATP luminescence, replicate 1": 76930, "raw ATP luminescence, replicate 2": 61200}
{"gene": "PGRP-LB (Peptidoglycan recognition protein LB)", "raw ATP luminescence, replicate 1": 48003, "raw ATP luminescence, replicate 2": 34203}
{"gene": "fit (female-specific independent of transformer)", "raw ATP luminescence, replicate 1": 59890, "raw ATP luminescence, replicate 2": 65920}
{"gene": "Naam (Nicotinamide amidase)", "raw ATP luminescence, replicate 1": 71100, "raw ATP luminescence, replicate 2": 56810}
{"gene": "lsn (larsen)", "raw ATP luminescence, replicate 1": 75150, "raw ATP luminescence, replicate 2": 84870}
{"gene": "dUTPase (Deoxyuridine triphosphatase)", "raw ATP luminescence, replicate 1": 77520, "raw ATP luminescence, replicate 2": 71493}
{"gene": "bin3 (bicoid-interacting protein 3)", "raw ATP luminescence, replicate 1": 31790, "raw ATP luminescence, replicate 2": 36153}
{"gene": "CG32808", "raw ATP luminescence, replicate 1": 2.33e5, "raw ATP luminescence, replicate 2": 2.18e5}
{"gene": "Atg4a (Autophagy-related 4a)", "raw ATP luminescence, replicate 1": 1.21e5, "raw ATP luminescence, replicate 2": 70363}
{"gene": "CG16749", "raw ATP luminescence, replicate 1": 43813, "raw ATP luminescence, replicate 2": 53400}
{"gene": "CG5039", "raw ATP luminescence, replicate 1": 61220, "raw ATP luminescence, replicate 2": 57910}
{"gene": "LRP1 (LDL receptor protein 1)", "raw ATP luminescence, replicate 1": 56507, "raw ATP luminescence, replicate 2": 74203}
{"gene": "CG18223", "raw ATP luminescence, replicate 1": 55010, "raw ATP luminescence, replicate 2": 59080}
{"gene": "Shc (SHC-adaptor protein)", "raw ATP luminescence, replicate 1": 95073, "raw ATP luminescence, replicate 2": 70123}
{"gene": "CG13705", "raw ATP luminescence, replicate 1": 83663, "raw ATP luminescence, replicate 2": 85100}
{"gene": "Dark (Death-associated APAF1-related killer)", "raw ATP luminescence, replicate 1": 69863, "raw ATP luminescence, replicate 2": 74090}
{"gene": "CG11106", "raw ATP luminescence, replicate 1": 3.50e5, "raw ATP luminescence, replicate 2": 3.53e5}
{"gene": "Pdha (Pyruvate dehydrogenase E1 alpha subunit)", "raw ATP luminescence, replicate 1": 39730, "raw ATP luminescence, replicate 2": 43620}
